Measurements: publication PMC7550656
Results are given in words; binding and its absence hold for the method and conditions named. In cells and extracts the contact can be indirect. Some results given as binding are weak or reduced against the parent protein; the word gives no strength.

Chains of the proteins cited; added tags and fusions are not shown.
UniProt Q04637: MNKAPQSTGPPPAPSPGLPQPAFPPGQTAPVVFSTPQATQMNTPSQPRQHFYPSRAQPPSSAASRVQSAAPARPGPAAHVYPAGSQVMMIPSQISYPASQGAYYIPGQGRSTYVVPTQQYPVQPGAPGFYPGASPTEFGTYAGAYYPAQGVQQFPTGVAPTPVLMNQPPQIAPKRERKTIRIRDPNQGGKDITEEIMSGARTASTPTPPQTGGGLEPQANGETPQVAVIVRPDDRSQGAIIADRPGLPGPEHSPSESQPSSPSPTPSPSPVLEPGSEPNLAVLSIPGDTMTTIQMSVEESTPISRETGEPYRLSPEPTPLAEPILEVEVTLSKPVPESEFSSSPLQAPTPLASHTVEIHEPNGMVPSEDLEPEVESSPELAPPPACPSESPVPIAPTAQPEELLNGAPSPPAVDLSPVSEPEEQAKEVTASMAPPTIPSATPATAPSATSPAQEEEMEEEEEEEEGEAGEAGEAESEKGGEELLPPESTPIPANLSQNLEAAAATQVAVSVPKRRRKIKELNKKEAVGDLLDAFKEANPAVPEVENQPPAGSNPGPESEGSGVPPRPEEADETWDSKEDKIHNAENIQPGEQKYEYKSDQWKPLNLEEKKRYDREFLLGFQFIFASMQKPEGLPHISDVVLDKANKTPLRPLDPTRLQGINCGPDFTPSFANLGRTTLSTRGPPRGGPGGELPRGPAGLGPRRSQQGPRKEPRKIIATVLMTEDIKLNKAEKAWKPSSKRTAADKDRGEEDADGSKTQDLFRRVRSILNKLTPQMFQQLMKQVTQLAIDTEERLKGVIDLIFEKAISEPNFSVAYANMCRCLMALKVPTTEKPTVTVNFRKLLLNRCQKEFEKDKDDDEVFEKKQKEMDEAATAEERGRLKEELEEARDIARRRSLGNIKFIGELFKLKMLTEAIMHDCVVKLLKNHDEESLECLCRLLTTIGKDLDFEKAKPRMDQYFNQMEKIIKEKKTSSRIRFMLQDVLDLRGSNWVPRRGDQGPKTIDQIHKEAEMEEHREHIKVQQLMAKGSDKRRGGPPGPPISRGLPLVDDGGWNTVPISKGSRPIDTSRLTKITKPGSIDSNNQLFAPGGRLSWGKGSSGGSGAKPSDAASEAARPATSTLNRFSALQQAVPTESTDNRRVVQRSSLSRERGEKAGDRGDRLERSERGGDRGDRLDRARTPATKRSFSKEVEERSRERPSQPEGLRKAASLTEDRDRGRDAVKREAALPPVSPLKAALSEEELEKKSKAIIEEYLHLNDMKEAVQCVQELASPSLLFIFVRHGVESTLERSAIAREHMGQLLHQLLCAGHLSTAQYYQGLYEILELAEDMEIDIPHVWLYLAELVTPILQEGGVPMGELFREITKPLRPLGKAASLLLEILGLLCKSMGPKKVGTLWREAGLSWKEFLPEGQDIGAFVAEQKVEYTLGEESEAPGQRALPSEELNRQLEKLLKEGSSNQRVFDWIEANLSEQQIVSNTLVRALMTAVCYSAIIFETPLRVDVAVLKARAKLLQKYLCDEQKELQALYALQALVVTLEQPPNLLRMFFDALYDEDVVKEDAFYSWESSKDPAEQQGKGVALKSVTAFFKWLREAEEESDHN
UniProt Q13283: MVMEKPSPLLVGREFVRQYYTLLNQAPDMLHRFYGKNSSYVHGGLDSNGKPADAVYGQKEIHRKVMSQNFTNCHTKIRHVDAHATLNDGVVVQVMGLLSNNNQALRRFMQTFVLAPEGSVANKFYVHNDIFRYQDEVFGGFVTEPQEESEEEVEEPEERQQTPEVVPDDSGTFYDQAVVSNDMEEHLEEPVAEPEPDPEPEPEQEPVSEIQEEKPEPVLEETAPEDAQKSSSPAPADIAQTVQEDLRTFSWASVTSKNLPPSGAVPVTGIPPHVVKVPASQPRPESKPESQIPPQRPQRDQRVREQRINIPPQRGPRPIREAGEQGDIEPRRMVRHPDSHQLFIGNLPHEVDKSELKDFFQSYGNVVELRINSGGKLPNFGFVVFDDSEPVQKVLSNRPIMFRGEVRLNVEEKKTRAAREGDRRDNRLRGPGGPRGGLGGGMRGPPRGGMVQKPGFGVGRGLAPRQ

Columns and labels:
[1] = biological target: eIF4GI, endogenous (human (endogenous in 293T)) (UniProt Q04637); assay: co-IP; mock-infected 293T cells; lysate immunoprecipitated with anti-eIF4GI antibodies, immunoblot
[2] = biological target: eIF4GI, transfected (Figure 7E) (UniProt Q04637); assay: co-IP; 293T cells transfected with SVV 3C (and eIF4GI, by the legend) for 24 h; lysate immunoprecipitated with anti-eIF4GI antibodies, immunoblot

- binding [1]: binds
- binding [2]: binds weakly
Substance: Ras-GTPase-activating protein SH3-domain-binding protein 1, endogenous (from UniProt Q13283 1-466)
